# Measurements from patent US20220002806A1, “BIOMARKER” (ERBER AKTIENGESELLSCHAFT, priority 2018, published 2022).
# Assays:
# miRNAs in serum = experiment: Targeted qPCR-based miRNA analysis in blood serum of ZEN-exposed piglets; assay type: in vivo, pig; conditions: Ctrl vs ZEN high group, unadjusted p-value ≤0.1
# Excerpt: (§1) Weaned female piglets (sow: Landrace×Large White, boar: Pietrain; 30+/−2 days old) were obtained from a local producer and individually tagged. Piglets were housed in slatted floor pens under controlled environmental conditions. After an acclimatization period of seven days, twenty-four female piglets were selected based on both body weight and vulva size, and allocated to one of four groups (6 animals/group). Piglets received either blank feed (negative control; Ctrl) or feed contaminated with ZEN in three increasing concentrations (ZEN low: 0.17 mg/kg diet; ZEN medium: 1.5 mg/kg diet; ZEN high: 4.6 mg/kg diet). During the 28-day experimental period, each treatment group was given free access to water and the assigned diet. The pigs were observed daily and weighed weekly.
# Blood was collected weekly (d 0, 6, 14, 21 and 28) from individual animals by punctuation of the vena cava cranialis (Primavette® EDTA, Kabe Labortechnik GmbH, Nümbrecht-Elsenroth, Deutschland). After centrifugation (1500×g, 20 min), serum samples were stored at −80° C. for later analysis. Vulva length and width were measured at regular intervals with a caliper to determine the dietary ZEN effects. The vulva area was calculated as vulva length×vulva width, as previously reported (Jiang et al. 2011. Journal of animal science, 89, 3008-3015). Eight measurements were done per piglet over the experimental period. […]
# miRNAs in uterus tissue = experiment: Small RNA sequencing (RNA-Seq) of miRNAs in uterus tissue of ZEN-exposed piglets; assay type: in vivo, pig (Sus scrofa); conditions: for number of miRNAs significantly affected in uterus: out of 224 miRNAs, adjusted p ≤0.07
# Excerpt: as §1
# After 28 days of dietary exposure to the experimental diets, pigs were anesthetized by intramuscular injection of ketamine (0.1 mL/kg body weight (b.w.) Narketan®, Vétoquinol GmbH, Ravensburg, Germany) and azaperone (0.03 mL/kg b.w.; Stresnil®, Janssen-Cilag, Neuss, Germany). […]
# miRNA Extraction and Library Preparation: A total of 18 animals was used for investigations on the miRNA profile in the tissues: 6 from Ctrl, 4 from ZEN low, 4 from ZEN medium, and 4 from ZEN high. […] Barcoded DNA libraries were purified using the QIAQuick PCR purification protocol (Qiagen, Hilden, Germany) and quantified using the DNA 1000 high sensitivity chip (Agilent Technologies, Germany). […]
# RNA sequencing (RNA-Seq) Bioinformatics Analysis: Total reads were adapter trimmed using Cutadapt and quality filtered (Q-Score >30) using the FastQC tool. Trimmed and quality filtered reads were aligned to reference miRNA sequences in miRBase release 21 (www.mirbase.org; Kozomora and Griffiths-Jones. 2014. Nucleid Acids Research, 42, D68-D73) using bowtie2. Subsequently, reads were mapped against the Sus scrofa genome assembly Sscrofa10.2 as well as Ensembl small non-coding RNA reference databases. Reads were normalized to the total read count per library to generate tags per million (TPM) values. […]
structure (smiles),measurement,setting,value
"C[C@H]1CCCC(=O)CCC/C=C/c2cc(O)cc(O)c2C(=O)O1 [ZEN, (2E,11S)-15,17-dihydroxy-11-methyl-12-oxabicyclo[12.4.0]octadeca-1(18),2,14,16-tetraene-7,13-dione]",number of serum miRNAs showing up- or down-regulation,miRNAs in serum; day 6,Three
same,number of serum miRNAs showing up- or down-regulation,miRNAs in serum; day 28,five
same,number of miRNAs significantly affected in uterus,miRNAs in uterus tissue; ZEN high (4.6 mg/kg diet),74
same,number of miRNAs significantly affected in uterus,miRNAs in uterus tissue; ZEN medium (1.5 mg/kg diet),16
same,number of miRNAs commonly affected in uterus,miRNAs in uterus tissue; in ZEN medium and ZEN high group,14
